Numbering of substitutions follows the chain as printed. These are yes or no findings as the source states them, for the method shown. Some binding calls cover weakened binding; strength is not graded here. For some of these results: Where a sequence is shown, tags or fusion partners need not be part of it.

Chains of the proteins cited; added tags and fusions are not shown. Residues count along the entry.
UniProt Q9NZQ7, residues 19-290: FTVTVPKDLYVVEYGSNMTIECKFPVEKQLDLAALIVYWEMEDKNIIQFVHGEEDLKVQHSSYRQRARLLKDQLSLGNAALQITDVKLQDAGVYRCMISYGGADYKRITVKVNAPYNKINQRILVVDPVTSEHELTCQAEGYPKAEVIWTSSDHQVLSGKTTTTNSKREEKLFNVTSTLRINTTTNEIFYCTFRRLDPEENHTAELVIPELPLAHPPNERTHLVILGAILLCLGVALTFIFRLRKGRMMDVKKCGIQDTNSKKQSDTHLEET

For five molecules, binding results are on record in patent US20230002494A1 (SANYOU BIOPHARMACEUTICALS, published 2023).

The target of assay [1] is T1, human PD-L1 (full-length, on cells) (human, UniProt Q9NZQ7 19-290).
T1 construct: whole, on cells; Expressed on CHO-s cells; also called human PD-L1-CHO; PD-L1-CHO
The experiment in a line: FACS blocking on PD-L1-CHO cells, lysate samples; the blocked ligand is not named on the sheet or in Example 17.

In assay [2] the target is T1, human PD-L1 (full-length, on cells). The experiment in a line: FACS, VHH lysate on PD-L1-CHO cells (FIG. 10), qualitative/semi-quantitative.
The target is the same in assay [3]. The experiment in a line: FACS on PD-L1-CHO cells, anti-Llama IgG FITC.
The target is the same in assay [4]. The experiment in a line: FACS blocking on PD-L1-CHO cells; blocked ligand huPD-1 mouse Fc, anti-mouse Fc PE; MFI = bound PD-1.
Assay [5] deals with rhesus monkey PD-L1 (full-length, on CHO-s cells) (rhesus monkey) (UniProt F6VEW6). The experiment in a line: FACS, monkey PD-L1-CHO cells.

B1: 47 (VHH)
VHH: EVQLVESGGGLVQPGGSLRLSCAASRTLSNIRGMHWYRQAPGKGREWVGTIFIDLNTIVTDSVKGRFTISRDNAKNTLYLQMNTLRAEDTAVYYCAADVSGYGRAWGQGTTVTVSS
notes: also called SY01-D21-47
As for B1, the binding result in assay [1] was “binds”.

B2: SY01-NB-004 (VHH lysate) (VHH)
VHH: B1 VHH with A24H, L28D, R32N, L55G, I58L, A105Y
Turning to B2, the binding entry in assay [2], in assay [3] and in assay [4] was “binds” throughout.

B3: NB22D-21 chimeric VHH-Fc antibody (Fc fusion)
chain: EVQVQESGGGLVQAGGSLRLSCAHSRTDSNINGMHWYRQAPGKQRDWVGTIFIDGNTIVTDSVKGRFTISRDNAKNTLYLQMNTLKPEDTAVYFCAADVSGYGRAWGQGTQVTVSS
notes: also called parental antibody NB22D-21; parent molecule; not shown: human IgG1 Fc fragment, its N-terminus linked to the C-terminus of the VHH
Consider B3, for which the binding entry in assay [5] is reported as “binds”.

B4: NB22D-21-24 VHH-Fc chimeric antibody protein (Fc fusion)
chain: B1 VHH with L28F, R32F, D54T, L55G
notes: not shown: human IgG1 Fc fragment, its N-terminus linked to the C-terminus of the VHH
On to B4, for which the binding entry in assay [5] was “binds”.

B5: NB22D-21-4 VHH-Fc chimeric antibody protein (Fc fusion)
chain: B1 VHH with L28D, S29R, R32N, G33T
notes: as for B4
Take B5: the binding entry in assay [5] was “binds”.
